# According to the supplement of paper PMC3334620:
# In all, about 33,000 sequences were measured (“E-score (-0.5 to 0.5)”: median about -0.016, highest 2% from about 0.3 on). The list shows a part of the results.
# Biological target: T1, Yer184c (UniProt P39961)
# T1 sequence: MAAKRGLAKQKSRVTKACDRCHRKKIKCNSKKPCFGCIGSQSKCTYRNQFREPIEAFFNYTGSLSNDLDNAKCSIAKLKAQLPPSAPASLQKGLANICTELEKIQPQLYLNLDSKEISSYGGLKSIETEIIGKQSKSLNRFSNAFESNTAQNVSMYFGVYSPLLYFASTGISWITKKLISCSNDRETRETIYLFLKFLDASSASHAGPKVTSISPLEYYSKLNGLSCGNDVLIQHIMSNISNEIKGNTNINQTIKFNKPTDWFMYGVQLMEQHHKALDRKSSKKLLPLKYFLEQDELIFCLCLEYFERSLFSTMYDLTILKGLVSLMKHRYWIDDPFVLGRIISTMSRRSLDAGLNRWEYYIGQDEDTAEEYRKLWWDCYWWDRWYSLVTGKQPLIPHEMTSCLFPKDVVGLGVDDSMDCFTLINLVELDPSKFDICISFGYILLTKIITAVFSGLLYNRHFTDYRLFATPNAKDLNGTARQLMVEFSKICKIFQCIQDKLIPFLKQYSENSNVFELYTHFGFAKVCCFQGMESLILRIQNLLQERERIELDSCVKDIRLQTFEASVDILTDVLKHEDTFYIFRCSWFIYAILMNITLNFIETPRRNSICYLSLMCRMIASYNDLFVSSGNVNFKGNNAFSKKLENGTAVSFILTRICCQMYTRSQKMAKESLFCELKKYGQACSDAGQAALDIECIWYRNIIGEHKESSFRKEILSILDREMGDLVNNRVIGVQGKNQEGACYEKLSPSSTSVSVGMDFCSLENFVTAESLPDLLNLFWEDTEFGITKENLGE
# Test: PBM E-score (8-mer binding enrichment) (E-score (-0.5 to 0.5)); higher = stronger / more preferred TF binding
# Details: protein concentration: 100 nM; construct: GST-full length
# Procedure, shortened: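 For each ungapped eight-base word taken together with its reverse complement, the Universal PBM Analysis Suite assigned an E-score. Binding data came from GST-tagged yeast transcription factors, applied at about 100-200 nM, on universal all-10-mer Agilent arrays made double-stranded by primer extension. Fluorescent anti-GST marked bound protein, and scans were normalised with masliner.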
row,Sequence,PBM E-score
1,ACACGGAG,0.179
2,CTCTTTCC,-0.089
3,CCTACTGA,-0.151
4,ACTCGGTG,-0.008
5,TAAGCCCA,-0.143
6,AACGTCCC,-0.181
7,CGATCGCC,0.152
8,CCAGCTAC,-0.255
9,GAAGTACA,0.0369
10,AAAGGAGC,-0.0826
11,CACGCTAC,-0.0976
12,ACTGGTGG,-0.244
13,GGGTCGGA,0.0158
14,GAACCTCA,0.113
15,GTGGACAA,0.0594
16,CGAGTGTC,0.019
17,CTATTACA,-0.086
18,AAGGGTCC,-0.0051
19,CAGCTTTA,0.0988
20,AGCGCCTA,-0.0937
21,CGGGTGTC,-0.00111
22,ACTAGCCA,-0.0418

# Laid out differently: entries from further up.
row	Sequence	PBM E-score
13	GGGTCGGA	0.0158
14	GAACCTCA	0.113
15	GTGGACAA	0.0594

# Remaining list, next part:

row,Sequence,PBM E-score
1,AAGACTCC,-0.264
2,CAAGTGGC,-0.0746
3,TCTCAAAA,0.14
4,GCCAAGAA,-0.0167
5,CACCTGAC,-0.178
6,ATAAGCTG,-0.0629
7,ATTCGGGG,0.155
8,CGCGCTTC,0.00563
9,CGGCTCCC,0.0852
10,GGAGTAAA,0.134
11,ATCGCGCC,0.0413
12,AACAGCTT,-0.0461
13,GGTTAGGA,-0.17
14,AACCATAT,-0.107
15,CGGAGCGA,0.332
16,GCACCGTA,0.0326
17,AATGATGT,0.177
18,TGAGTCCA,0.0121
19,GAAGCCTC,-0.124
20,AACTACAA,0.207
21,AGTTCCGG,0.374
22,GCCTTACC,-0.284

# Reprinted at random: two entries already listed, in no set order.
row,Sequence,PBM E-score
10,GGAGTAAA,0.134
21,CGGGTGTC,-0.00111

# Carrying on.

row,Sequence,PBM E-score
1,GGTGCGGA,0.0232
2,ACTCAGAG,0.063
3,TAGACATA,0.144
4,AGACTCAT,-0.0316
5,CGCACAAA,0.101
6,ATTCGGAA,0.353
7,ACGAACCT,-0.0757
8,CTAGTATA,0.162
9,ATCCAGCG,0.187
10,AGGGTACT,-0.289
11,CAGCGGCG,0.0785
12,CCTATCAA,-0.0578
13,TACTTAAA,0.0478
14,CGCAGGAA,-0.2
15,AACGCTGA,-0.114
16,TGTAAAAA,0.0838
17,CAGGATGA,-0.169
18,CGCCGCAA,0.266
19,CGATTGCC,-0.0159
20,AGTGCACG,-0.114
21,ATCGCGTC,0.0538
22,AGGTTTTA,-0.00415

row,Sequence,PBM E-score
1,CAATATGC,-0.126
2,ACTTGACT,-0.153
3,CGCTCCTA,-0.0585
4,CCTAGAAA,0.0656
5,AGCAAAAG,-0.11
6,AAGTGTAT,-0.162
7,CTCGATAC,0.1
8,TATCTCCA,-0.00899
9,CTATACAC,-0.191
10,AGAGGACG,0.0187
11,CTACTTGC,0.0781
12,CCTGCCAA,-0.137
13,AACTAGCT,-0.0226
14,ATGCGTTC,0.142
15,ATCGGAGA,0.216
16,GAACGGCC,0.135
17,AGTGCTAG,-0.133
18,ACGATACA,-0.089
19,AATCTGTC,-0.00095
20,GTGAACAA,0.1
